Measured values as given in patent US12024549 (dated 2024).

Experiment: general procedure: Fmoc solid-phase peptide synthesis; Fmoc-NH-SAL-PEG Resin HL
Settings: oxidative folding step

For Ac-RGNCAYHKGQLVWCTYH-NH2, the oxidative folding yield was 90% or more.
